The list shows a part of the results.

Sequences of proteins named here, by UniProt entry; tags and fusion partners are left off.
UniProt Q0JBA9, entry or part of it: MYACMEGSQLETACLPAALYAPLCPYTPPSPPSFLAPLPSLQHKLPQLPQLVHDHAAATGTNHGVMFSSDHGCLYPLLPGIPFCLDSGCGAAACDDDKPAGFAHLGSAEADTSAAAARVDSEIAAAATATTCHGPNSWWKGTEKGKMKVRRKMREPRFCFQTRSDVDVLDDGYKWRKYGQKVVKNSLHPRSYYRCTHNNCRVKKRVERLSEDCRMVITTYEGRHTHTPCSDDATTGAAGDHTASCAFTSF

Results on 42 sequences are retold here after paper PMC7819943, “Rice protein-binding microarrays: a tool to detect cis-acting elements near promoter regions in rice”.

The target in this experiment is OsWRKY34 (Oryza sativa, UniProt Q0JBA9 1-250). Briefly: protein-binding microarray (RPBM); PBS, 2% BSA, 51.3 ng/ul salmon testes DNA, 50 uM zinc acetate, 200 nM TF, 25 C, 1 h; high values mean tight binding. As to conditions: protein: recombinant; tags: N-terminal polyhistidine and DsRed monomer fusion (pET32a); label: CyDye5-dUTP incorporated in the synthesized complementary strand; 3' TTTTT single-stranded linker to array surface; dsDNA, one strand shown. An outline of the steps:
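Polyhistidine-tagged DsRed fusions of transcription factors, joined at the N-terminus, were expressed in E. coli BL21-CodonPlus and isolated on Ni–NTA. They were incubated at 200 nM for 1 h at 25 °C on a custom Agilent array, double-stranded and BSA-blocked, in PBS with 2% BSA, salmon testes DNA and 50 µM zinc acetate. The binding signal is per-feature fluorescence intensity (arbitrary units) read on an Axon 4000B scanner after washing.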
“AGGTTACGTACTCTCTGCTCCCTACATTAGCACTGGCGCACGGAGTCACCTAGTGCAG”: the binding signal is 8290 fluorescence intensity (a.u.).

On to “GATATATTTGTTTTGTGTTAAAAATGCTACTATATTTTTTCGGAGTCACCTAGTGCAG”, for which the binding signal was 9290 fluorescence intensity (a.u.).

For the sequence “TTGTATGATGCCGTTGATTTTTTTTGTCTAACGTTTAACCCGGAGTCACCTAGTGCAG”, the binding signal was 8360 fluorescence intensity (a.u.). As for “CTACACTGGTCTGTTTGTCAACCATGGCGGGGAATGAGGACGGAGTCACCTAGTGCAG”, the figure is 11900 fluorescence intensity (a.u.); as for “ACATTCTACAATATACCATCGACTTTTGCTTAACTTCTACCGGAGTCACCTAGTGCAG”, 10000 fluorescence intensity (a.u.). As for “GCGGCGGCGGCGCTGGGGTCGGGGTTCGGCGGTCGCAATGCGGAGTCACCTAGTGCAG”, the figure is 8920 fluorescence intensity (a.u.); as for “ATAGTGCTCTTATCTCTCATCTTTTATCTTTTCGAAATATCGGAGTCACCTAGTGCAG”, 8410 fluorescence intensity (a.u.). As for “GTAGATTTTTTTTTGTGCAAGTTAGCCAAATTTTGACTTGCGGAGTCACCTAGTGCAG”, the figure is 8660 fluorescence intensity (a.u.). For the sequence “AACTGCACGTACTATATTCACATGCTAACATAAGCTTTGCCGGAGTCACCTAGTGCAG”, the binding signal is 9850 fluorescence intensity (a.u.). Regarding “CCCCAACCTTTTCAACCACACCCACCCAACACGCCATGATCGGAGTCACCTAGTGCAG”, the binding signal was 9460 fluorescence intensity (a.u.). Consider “CACAAATACCTCTATGTTGTGCTTATACCATTTTATTTCTCGGAGTCACCTAGTGCAG”, for which the binding signal is 8680 fluorescence intensity (a.u.). On to “CATTGATTTGATGCGTCTGGTAGTGTGGTGGTGTTCTTGACGGAGTCACCTAGTGCAG”, for which the binding signal is 8220 fluorescence intensity (a.u.). The value for “CGGGGTTCTTGTGTTTATTGTTAAGATCCGGTTTGCTGAACGGAGTCACCTAGTGCAG” was 21900 fluorescence intensity (a.u.); that for “GCCCGGATCAAACGGCATGAGTTGACCAACTCGTCTGGTACGGAGTCACCTAGTGCAG” was 8800 fluorescence intensity (a.u.); that for “TTTTTTACCTACCTCCACTTCTGAATCAATTGTAGTTTTTCGGAGTCACCTAGTGCAG” was 8480 fluorescence intensity (a.u.). Regarding “CCCACACTGTATGACCTGCCCAGCTATTGAAACATCAAATCGGAGTCACCTAGTGCAG”, the binding signal is 8190 fluorescence intensity (a.u.).

For “CTCGTTCCCACGGGATCCCGTGGTCTAGCTATCCTCATTACGGAGTCACCTAGTGCAG”, the binding signal is 9950 fluorescence intensity (a.u.). In the case of “CTAAGCTGTGATTTCTTTTCTTTATGTCACCACCTCCAAACGGAGTCACCTAGTGCAG”, the binding signal is 8890 fluorescence intensity (a.u.). As for “GCGCTTCTTCTCTGCTTCGTTTCACAGGGTTGTTGATGGCCGGAGTCACCTAGTGCAG”, the figure is 9960 fluorescence intensity (a.u.). As for “TCCTCTTCTTTTCTCTCCCTCCGCCACTCGACGCCCAACCCGGAGTCACCTAGTGCAG”, the figure is 9310 fluorescence intensity (a.u.); as for “TCTAGCGTAACATGTTCTTCCATTGATAGTTTGGTGGGATCGGAGTCACCTAGTGCAG”, 8310 fluorescence intensity (a.u.). With “GAGAGAGAGGGAGGGAGAGGCTGGCTGGGGAGACGGAACACGGAGTCACCTAGTGCAG”, the binding signal was 8830 fluorescence intensity (a.u.).

On to “GGCGGAGGTGGAGGTGCTGGCCGCTGGATGGTCGCAGAGGCGGAGTCACCTAGTGCAG”, for which the binding signal was 8880 fluorescence intensity (a.u.). For the sequence “CTTCTGTAGAATCCTCCGCCTCCGCTTCTCTCTCTCGTCGCGGAGTCACCTAGTGCAG”, the binding signal is 9700 fluorescence intensity (a.u.). As for “TGTTATTGTGCTGTAATCCTTTCCACTCGTTCCCATTCCTCGGAGTCACCTAGTGCAG”, the binding signal is 9980 fluorescence intensity (a.u.). The value for “GGAGATTGGAAGATTAGCTTTGTTTTTAGCATGTTCTGCCCGGAGTCACCTAGTGCAG” was 8890 fluorescence intensity (a.u.); that for “TCGGTTGTCTGGTTTTTGTAAGATGAGGGACAGTTCAGTTCGGAGTCACCTAGTGCAG” was 8160 fluorescence intensity (a.u.); that for “CTCTCTCTGCTTCGATTCGATTCGATTCGATCTTCTCCACCGGAGTCACCTAGTGCAG” was 8190 fluorescence intensity (a.u.). The value for “TATTGATGGGCTGCTCATTCTAGTTGGGTCCGACCGGCGTCGGAGTCACCTAGTGCAG” was 9310 fluorescence intensity (a.u.); that for “TTAGTAGCTCAATGTCATTGGAGAATTTGTTTATTTTGAACGGAGTCACCTAGTGCAG” was 8700 fluorescence intensity (a.u.); that for “GCCCGTTCTTCAGCTTTCGTTTGTGCGGCCATCGATCGCCCGGAGTCACCTAGTGCAG” was 11100 fluorescence intensity (a.u.). On to “ACTCCATTCATTTTTTTAATATATGACCTTGCGTTTGATCCGGAGTCACCTAGTGCAG”, for which the binding signal is 9420 fluorescence intensity (a.u.).

As to “AATCTGAATTTTGGAGCCCATCAACACTGGCCTCTTTTTCCGGAGTCACCTAGTGCAG”, the binding signal was 8030 fluorescence intensity (a.u.). The value for “CTCTCTCAGACTTCTCTTTCTCTCTCTGTCTCCAGCCATGCGGAGTCACCTAGTGCAG” was 9280 fluorescence intensity (a.u.); that for “TCCCTTCTACGCCCTTGAATTTTGCTCATTCCCTTACATACGGAGTCACCTAGTGCAG” was 9450 fluorescence intensity (a.u.). Regarding “ACGGCTTCGACTACTTCCTCTACATCGTCCACTTCGACTACGGAGTCACCTAGTGCAG”, the binding signal was 9600 fluorescence intensity (a.u.). As for “GTCGATACAAAAGTGCCTTTCTTCTTTTTTTTTTCTTCCTCGGAGTCACCTAGTGCAG”, the figure is 8970 fluorescence intensity (a.u.); as for “TCCTTTACCAAAGGCTGTCTACTTTTTGGTGGAGGGGAATCGGAGTCACCTAGTGCAG”, 8850 fluorescence intensity (a.u.); as for “AAGGTTTTTTTTTCTCCGAGTCATCTCGCCTCCTCTCGCGCGGAGTCACCTAGTGCAG”, 11000 fluorescence intensity (a.u.).

As to “TCTTGCCAATGCCAACTTCACATGATTTCGCTCACTAGTACGGAGTCACCTAGTGCAG”, the binding signal was 8840 fluorescence intensity (a.u.). The value for “CGCTGACCACAGTCCACCGTCCGTCCGTCACCCGCTCCCCCGGAGTCACCTAGTGCAG” was 9870 fluorescence intensity (a.u.). Regarding “CGCCCCTTCGGGTCACAGTGTTGCCCATCTCGTCGTCTTCCGGAGTCACCTAGTGCAG”, the binding signal was 11200 fluorescence intensity (a.u.).
